Data published in the supplement of paper PMC13380429.

How the values were obtained:
Conditions in all cases: 72 h
U2OS = test: cell viability relative to DMSO; higher = less toxic
HepG2 = test: as above
Calu-3 = test: as above
Vero E6 [1] = test: as above
Caco-2 = test: as above
Vero E6 [2] = test: relative viability EC50 (midpoint between 100% and the lowest measured viability); higher = less toxic

COc1cc2ncnc(Nc3ccc(F)c(Cl)c3)c2cc1OCCCN1CCOCC1 [gefitinib]
cell viability [%]
Conditions | Caco-2 | Calu-3 | HepG2 | U2OS | Vero E6 [1]
1 nM | 110 | 91.5 | 91.8 | 101 | 94.3
10 nM | 102 | 105 | 91.5 | 103 | 93.2
100 nM | 87.8 | 72.7 | 95.2 | 93.4 | 83.9
1000 nM | 82.9 | 48.4 | 89.5 | 93.1 | 63.1
10000 nM | 58.6 | 14.4 | 56.3 | 70.4 | 29.5

Conditions | relative viability EC50 [nM]
Vero E6 [2] | 605
